Paper PMC8979988
Results are given in words; binding and its absence hold for the method and conditions named. In cells and extracts the contact can be indirect. Some results given as binding are weak or reduced against the parent protein; the word gives no strength.

Chains of the proteins cited; added tags and fusions are not shown.
UniProt Q8BSK8: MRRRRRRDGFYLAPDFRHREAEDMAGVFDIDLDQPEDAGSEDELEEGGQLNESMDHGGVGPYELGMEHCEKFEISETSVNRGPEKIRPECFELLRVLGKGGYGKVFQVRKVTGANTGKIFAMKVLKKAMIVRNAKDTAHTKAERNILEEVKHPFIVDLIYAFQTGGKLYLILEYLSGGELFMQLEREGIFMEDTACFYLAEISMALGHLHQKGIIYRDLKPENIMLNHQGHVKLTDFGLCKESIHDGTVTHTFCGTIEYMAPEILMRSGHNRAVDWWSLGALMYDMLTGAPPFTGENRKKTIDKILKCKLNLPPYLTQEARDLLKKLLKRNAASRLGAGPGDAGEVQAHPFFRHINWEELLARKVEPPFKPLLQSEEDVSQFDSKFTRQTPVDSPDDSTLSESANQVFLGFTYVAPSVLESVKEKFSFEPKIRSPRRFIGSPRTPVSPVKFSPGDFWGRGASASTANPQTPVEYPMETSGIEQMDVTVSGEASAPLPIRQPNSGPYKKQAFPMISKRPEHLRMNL
UniProt Q9WTL8: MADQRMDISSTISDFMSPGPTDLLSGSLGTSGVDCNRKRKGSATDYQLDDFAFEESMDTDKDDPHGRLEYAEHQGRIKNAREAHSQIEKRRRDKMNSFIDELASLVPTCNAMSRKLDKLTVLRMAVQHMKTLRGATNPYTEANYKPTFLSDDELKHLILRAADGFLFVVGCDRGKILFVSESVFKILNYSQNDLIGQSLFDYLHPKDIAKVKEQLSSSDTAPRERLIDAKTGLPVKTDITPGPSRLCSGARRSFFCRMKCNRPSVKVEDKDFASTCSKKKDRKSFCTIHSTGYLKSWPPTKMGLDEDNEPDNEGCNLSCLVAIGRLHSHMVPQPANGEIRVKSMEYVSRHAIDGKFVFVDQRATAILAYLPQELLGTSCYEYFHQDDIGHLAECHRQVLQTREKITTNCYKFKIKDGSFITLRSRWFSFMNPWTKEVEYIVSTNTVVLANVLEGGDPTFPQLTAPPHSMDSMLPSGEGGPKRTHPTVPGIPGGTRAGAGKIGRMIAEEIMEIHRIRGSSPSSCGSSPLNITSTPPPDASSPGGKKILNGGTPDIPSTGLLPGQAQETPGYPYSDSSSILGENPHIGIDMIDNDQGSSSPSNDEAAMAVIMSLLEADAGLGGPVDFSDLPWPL

Biological target: ribosomal protein S6 kinase 1 (S6K1) (mouse (endogenous in 3T3-L1)) (UniProt Q8BSK8)
Experiment: co-IP; immunoprecipitation with S6K1 or IgG antibody from separated cytosolic and nuclear extracts of 3T3-L1 adipocytes; antibody 16 h at 4 °C, Protein A magnetic beads; IP lysis buffer 40 mM HEPES pH 7.4, 120 mM NaCl, 1 mM EDTA, 0.3% CHAPSO; immunoblot

binding: binds
Substance: BMAL1 (Brain and Muscle ARNT-Like 1) (from UniProt Q9WTL8 1-632)
